Here are results for one substance from paper PMC11499256, “Two-factor authentication underpins the precision of the piRNA pathway” (Nature, 2024).

Sequences of proteins named here, by UniProt entry; tags and fusion partners are left off.
UniProt Q61142: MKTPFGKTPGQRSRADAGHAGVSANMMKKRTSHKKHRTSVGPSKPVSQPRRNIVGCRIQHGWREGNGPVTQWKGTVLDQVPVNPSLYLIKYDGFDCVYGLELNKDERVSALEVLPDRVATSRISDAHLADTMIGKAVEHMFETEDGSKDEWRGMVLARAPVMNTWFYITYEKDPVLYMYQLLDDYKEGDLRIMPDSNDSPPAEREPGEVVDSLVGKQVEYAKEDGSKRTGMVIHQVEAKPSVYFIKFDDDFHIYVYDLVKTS

For this test, the target named is T1, HA–SPOCD1 from the Spocd1^HA knock-in allele, E14.5 fetal testes (mouse (endogenous in fetal testis)) (UniProt B1ASB6).
T1 sequence: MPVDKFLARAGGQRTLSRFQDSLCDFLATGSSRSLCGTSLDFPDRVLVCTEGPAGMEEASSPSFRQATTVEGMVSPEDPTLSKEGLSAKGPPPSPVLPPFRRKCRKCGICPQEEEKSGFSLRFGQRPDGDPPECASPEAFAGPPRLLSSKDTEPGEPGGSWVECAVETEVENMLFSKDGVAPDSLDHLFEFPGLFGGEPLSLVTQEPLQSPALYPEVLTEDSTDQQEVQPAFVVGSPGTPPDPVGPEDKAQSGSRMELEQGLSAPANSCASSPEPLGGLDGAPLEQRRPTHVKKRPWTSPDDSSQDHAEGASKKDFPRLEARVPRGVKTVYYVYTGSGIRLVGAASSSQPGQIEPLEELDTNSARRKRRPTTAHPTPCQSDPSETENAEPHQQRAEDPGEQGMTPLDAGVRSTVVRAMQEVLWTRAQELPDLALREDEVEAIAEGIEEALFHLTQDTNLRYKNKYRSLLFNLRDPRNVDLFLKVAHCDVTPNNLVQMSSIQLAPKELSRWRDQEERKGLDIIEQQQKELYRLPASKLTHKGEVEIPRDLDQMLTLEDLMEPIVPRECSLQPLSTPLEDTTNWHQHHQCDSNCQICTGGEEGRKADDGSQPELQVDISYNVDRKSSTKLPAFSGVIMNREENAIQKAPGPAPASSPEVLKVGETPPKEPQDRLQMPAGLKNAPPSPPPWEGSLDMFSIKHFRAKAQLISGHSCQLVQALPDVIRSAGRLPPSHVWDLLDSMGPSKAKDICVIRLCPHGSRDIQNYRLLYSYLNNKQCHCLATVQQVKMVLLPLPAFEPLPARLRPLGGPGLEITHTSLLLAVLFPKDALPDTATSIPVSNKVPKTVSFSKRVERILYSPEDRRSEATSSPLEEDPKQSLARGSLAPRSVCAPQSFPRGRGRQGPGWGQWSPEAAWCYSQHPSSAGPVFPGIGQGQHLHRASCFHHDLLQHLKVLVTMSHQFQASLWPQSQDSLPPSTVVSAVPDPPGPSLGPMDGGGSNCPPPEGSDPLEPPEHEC
In words: affinity purification with mass spectrometry; anti-HA beads on E14.5 fetal testes of Spocd1^HA mice, 25 testes per replicate, wild-type testes as control, n = 3.

Results are given in words; binding and its absence hold for the method and conditions named. In cells and extracts the contact can be indirect. A yes stands for co-enrichment or nearness to the bait. Other partners may have been found. Tags and fused reporters may be left off the sequences shown.

In the case of “SPIN1, endogenous in E14.5 fetal testes (from UniProt Q61142 1-262)”, the binding result was “binds”.
